Test results: publication PMC11289294
No constants are given. Whether binding was seen depends on the method and setting. In cells and extracts the contact can be indirect. A yes stands for co-enrichment or nearness to the bait. Other partners may have been found. Tags and fused reporters may be left off the sequences shown.

Sequences of proteins named here, by UniProt entry; tags and fusion partners are left off.
UniProt P19474: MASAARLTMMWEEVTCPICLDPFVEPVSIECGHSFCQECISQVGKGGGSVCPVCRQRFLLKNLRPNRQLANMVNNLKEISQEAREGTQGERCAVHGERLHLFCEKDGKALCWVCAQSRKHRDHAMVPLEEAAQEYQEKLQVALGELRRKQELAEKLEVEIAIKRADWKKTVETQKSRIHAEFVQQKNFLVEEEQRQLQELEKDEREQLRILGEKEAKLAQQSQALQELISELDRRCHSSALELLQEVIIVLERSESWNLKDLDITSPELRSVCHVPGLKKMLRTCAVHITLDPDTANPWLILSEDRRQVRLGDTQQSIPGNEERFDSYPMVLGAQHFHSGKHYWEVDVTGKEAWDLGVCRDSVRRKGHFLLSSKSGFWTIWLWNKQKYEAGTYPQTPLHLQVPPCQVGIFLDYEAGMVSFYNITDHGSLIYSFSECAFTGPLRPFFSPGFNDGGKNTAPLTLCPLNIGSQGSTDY

Target: T1, CCT2-Flag (chaperonin-containing TCP1 subunit 2), expressed in MDA-MB-231 cells (human) (UniProt P78371)
T1 sequence: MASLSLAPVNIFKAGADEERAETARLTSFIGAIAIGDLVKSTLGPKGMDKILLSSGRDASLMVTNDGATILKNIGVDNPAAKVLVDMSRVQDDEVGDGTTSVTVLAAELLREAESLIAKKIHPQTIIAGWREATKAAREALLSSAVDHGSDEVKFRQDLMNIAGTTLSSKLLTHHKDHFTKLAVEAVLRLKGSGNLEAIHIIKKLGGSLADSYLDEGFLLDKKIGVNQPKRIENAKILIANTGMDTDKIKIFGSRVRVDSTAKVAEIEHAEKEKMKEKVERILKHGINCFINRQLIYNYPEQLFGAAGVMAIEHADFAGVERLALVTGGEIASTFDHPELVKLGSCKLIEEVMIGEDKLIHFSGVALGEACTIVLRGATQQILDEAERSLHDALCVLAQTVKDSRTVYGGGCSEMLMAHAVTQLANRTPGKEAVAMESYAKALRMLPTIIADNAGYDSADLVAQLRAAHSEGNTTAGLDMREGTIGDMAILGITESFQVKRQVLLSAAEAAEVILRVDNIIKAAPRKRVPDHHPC
Experiment: affinity purification with mass spectrometry; CCT2-Flag plasmid transfected into MDA-MB-231 cells; co-IP, silver staining, mass spectrometry (text: tandem affinity purification coupled with mass spectrometry)

Trim21 (ubiquitin E3 ligase), endogenous in human breast cancer cells (from UniProt P19474 1-475)
binding: binds
